These results are taken from the supplement of paper PMC12067093, “Discovery and optimisation of a covalent ligand for TRIM25 and its application to targeted protein ubiquitination” (Chemical Science, 2025).

The chains behind the UniProt entries cited, without tags or fusion partners. Where a name states a change or a piece, a line headed by the entry shows the natural chain unless it says otherwise.
UniProt P10398: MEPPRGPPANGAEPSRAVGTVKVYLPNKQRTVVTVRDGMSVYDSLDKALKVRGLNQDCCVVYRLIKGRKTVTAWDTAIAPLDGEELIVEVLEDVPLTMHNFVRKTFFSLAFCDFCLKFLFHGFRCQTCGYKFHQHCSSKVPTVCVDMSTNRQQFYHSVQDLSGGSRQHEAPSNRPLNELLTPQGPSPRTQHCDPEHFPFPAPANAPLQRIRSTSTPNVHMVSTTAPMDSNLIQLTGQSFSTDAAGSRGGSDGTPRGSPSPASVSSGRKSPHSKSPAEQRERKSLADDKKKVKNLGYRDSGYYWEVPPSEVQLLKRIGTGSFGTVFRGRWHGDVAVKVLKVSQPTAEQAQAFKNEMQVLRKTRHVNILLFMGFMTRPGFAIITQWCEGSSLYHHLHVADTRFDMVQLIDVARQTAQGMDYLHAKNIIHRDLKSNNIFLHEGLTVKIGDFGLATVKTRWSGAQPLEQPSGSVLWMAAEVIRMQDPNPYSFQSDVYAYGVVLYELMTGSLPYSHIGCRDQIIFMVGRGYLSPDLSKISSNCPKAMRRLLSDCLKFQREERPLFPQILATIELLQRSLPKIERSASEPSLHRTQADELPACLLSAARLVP
UniProt P18085: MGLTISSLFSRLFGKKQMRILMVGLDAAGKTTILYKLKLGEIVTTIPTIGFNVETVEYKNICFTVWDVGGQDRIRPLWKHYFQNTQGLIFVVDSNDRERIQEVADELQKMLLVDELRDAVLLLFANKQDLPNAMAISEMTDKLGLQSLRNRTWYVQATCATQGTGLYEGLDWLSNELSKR
UniProt Q5T2E6: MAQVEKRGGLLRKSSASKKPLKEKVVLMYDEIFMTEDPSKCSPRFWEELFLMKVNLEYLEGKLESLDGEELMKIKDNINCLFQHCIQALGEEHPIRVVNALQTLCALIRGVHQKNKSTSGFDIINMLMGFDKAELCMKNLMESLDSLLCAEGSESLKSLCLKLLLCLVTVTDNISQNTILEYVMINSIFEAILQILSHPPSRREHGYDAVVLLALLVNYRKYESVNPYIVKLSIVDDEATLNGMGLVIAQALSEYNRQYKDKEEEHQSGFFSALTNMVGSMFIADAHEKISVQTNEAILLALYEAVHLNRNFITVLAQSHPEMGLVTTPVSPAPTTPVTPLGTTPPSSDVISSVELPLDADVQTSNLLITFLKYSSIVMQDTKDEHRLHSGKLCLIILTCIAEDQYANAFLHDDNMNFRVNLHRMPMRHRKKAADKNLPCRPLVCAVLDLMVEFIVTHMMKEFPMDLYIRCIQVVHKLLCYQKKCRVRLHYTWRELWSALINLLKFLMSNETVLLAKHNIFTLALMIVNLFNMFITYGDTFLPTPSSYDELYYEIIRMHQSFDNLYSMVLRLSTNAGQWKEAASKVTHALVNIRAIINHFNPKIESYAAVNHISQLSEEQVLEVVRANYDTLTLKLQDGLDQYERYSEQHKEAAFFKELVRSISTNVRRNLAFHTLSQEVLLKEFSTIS
UniProt Q9Y2Y0: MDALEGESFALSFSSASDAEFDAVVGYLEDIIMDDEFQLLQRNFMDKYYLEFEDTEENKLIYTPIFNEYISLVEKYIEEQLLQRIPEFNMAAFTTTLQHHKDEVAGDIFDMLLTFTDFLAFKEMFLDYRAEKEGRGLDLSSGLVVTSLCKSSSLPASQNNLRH
UniProt Q9Y6D6: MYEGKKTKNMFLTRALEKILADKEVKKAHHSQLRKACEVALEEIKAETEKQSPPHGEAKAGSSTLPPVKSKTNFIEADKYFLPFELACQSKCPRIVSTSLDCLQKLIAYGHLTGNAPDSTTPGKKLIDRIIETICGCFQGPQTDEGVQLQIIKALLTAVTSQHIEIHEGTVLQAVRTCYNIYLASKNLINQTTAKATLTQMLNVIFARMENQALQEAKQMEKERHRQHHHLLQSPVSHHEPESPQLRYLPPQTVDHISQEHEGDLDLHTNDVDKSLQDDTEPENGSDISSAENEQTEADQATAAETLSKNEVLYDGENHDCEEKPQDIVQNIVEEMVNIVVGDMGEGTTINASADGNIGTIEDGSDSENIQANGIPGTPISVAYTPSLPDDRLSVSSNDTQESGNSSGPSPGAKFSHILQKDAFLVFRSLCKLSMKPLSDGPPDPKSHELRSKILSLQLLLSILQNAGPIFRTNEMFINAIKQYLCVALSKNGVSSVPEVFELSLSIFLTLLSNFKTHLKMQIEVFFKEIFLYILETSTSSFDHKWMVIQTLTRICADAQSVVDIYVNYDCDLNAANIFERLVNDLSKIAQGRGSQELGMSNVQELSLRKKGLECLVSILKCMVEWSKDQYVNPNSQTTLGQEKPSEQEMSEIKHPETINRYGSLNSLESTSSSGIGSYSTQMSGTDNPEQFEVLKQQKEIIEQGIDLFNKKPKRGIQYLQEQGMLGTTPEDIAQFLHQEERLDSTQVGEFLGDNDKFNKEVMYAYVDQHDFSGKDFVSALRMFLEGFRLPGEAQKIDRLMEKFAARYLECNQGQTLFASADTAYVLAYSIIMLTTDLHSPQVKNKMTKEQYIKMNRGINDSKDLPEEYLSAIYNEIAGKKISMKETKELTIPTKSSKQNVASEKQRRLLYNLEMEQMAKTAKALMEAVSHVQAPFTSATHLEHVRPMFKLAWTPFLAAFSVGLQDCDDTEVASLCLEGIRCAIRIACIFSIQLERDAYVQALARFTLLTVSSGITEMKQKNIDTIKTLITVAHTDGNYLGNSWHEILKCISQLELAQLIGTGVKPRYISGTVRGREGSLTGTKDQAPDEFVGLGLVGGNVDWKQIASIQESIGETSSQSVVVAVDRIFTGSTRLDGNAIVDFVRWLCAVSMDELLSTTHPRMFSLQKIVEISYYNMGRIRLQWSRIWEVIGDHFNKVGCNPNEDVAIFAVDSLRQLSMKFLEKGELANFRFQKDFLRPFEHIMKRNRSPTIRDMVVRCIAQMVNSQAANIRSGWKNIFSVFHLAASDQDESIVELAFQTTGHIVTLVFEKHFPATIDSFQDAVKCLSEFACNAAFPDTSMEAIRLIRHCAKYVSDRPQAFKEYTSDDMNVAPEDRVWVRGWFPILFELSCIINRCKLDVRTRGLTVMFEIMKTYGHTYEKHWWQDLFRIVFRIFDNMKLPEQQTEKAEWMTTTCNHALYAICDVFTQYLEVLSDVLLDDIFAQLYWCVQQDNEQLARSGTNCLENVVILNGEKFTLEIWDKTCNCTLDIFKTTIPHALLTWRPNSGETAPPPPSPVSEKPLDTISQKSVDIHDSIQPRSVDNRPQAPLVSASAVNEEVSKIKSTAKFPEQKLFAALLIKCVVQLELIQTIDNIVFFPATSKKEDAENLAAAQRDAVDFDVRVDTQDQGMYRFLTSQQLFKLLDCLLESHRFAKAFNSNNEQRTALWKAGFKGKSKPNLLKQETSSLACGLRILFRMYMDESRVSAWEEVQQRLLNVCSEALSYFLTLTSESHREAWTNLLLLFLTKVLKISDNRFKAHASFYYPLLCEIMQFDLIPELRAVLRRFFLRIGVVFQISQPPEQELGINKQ
UniProt Q8WWN8: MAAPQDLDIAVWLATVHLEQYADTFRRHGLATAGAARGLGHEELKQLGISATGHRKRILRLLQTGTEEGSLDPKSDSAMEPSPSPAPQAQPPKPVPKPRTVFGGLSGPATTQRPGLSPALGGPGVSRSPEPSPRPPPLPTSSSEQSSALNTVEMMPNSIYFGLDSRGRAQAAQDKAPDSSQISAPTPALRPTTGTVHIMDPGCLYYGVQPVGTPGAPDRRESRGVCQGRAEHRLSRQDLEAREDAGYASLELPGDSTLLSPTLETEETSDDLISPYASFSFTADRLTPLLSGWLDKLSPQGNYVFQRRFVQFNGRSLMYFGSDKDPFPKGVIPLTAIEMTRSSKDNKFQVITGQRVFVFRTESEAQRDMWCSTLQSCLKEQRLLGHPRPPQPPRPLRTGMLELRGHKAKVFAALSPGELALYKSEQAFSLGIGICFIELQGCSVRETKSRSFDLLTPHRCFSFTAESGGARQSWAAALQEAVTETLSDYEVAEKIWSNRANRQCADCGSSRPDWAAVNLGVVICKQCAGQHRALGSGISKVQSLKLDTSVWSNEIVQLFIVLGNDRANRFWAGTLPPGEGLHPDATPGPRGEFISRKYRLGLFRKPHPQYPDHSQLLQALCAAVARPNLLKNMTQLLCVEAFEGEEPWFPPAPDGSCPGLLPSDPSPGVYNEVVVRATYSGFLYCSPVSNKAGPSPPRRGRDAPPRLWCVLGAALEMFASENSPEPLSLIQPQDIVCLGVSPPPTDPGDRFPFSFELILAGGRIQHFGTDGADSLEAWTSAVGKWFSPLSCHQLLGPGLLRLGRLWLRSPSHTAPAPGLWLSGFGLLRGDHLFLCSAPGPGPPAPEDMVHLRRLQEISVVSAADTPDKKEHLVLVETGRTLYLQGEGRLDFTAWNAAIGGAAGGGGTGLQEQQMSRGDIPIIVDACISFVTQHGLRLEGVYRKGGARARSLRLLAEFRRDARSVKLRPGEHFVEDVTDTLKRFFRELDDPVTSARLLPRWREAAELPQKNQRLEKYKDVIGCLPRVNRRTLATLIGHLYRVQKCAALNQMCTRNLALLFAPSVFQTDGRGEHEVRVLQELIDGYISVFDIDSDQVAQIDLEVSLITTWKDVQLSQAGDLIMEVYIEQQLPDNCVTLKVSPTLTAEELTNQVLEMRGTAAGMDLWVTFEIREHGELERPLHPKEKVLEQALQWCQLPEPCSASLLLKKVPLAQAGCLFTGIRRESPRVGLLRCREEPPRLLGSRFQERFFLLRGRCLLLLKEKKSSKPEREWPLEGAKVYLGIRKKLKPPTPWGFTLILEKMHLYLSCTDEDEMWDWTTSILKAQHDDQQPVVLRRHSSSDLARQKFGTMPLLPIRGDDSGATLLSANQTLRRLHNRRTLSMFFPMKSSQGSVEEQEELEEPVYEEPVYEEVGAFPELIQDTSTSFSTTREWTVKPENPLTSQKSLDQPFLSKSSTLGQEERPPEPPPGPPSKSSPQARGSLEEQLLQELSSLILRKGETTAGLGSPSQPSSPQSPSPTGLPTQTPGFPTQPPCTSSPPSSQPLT
UniProt O60306: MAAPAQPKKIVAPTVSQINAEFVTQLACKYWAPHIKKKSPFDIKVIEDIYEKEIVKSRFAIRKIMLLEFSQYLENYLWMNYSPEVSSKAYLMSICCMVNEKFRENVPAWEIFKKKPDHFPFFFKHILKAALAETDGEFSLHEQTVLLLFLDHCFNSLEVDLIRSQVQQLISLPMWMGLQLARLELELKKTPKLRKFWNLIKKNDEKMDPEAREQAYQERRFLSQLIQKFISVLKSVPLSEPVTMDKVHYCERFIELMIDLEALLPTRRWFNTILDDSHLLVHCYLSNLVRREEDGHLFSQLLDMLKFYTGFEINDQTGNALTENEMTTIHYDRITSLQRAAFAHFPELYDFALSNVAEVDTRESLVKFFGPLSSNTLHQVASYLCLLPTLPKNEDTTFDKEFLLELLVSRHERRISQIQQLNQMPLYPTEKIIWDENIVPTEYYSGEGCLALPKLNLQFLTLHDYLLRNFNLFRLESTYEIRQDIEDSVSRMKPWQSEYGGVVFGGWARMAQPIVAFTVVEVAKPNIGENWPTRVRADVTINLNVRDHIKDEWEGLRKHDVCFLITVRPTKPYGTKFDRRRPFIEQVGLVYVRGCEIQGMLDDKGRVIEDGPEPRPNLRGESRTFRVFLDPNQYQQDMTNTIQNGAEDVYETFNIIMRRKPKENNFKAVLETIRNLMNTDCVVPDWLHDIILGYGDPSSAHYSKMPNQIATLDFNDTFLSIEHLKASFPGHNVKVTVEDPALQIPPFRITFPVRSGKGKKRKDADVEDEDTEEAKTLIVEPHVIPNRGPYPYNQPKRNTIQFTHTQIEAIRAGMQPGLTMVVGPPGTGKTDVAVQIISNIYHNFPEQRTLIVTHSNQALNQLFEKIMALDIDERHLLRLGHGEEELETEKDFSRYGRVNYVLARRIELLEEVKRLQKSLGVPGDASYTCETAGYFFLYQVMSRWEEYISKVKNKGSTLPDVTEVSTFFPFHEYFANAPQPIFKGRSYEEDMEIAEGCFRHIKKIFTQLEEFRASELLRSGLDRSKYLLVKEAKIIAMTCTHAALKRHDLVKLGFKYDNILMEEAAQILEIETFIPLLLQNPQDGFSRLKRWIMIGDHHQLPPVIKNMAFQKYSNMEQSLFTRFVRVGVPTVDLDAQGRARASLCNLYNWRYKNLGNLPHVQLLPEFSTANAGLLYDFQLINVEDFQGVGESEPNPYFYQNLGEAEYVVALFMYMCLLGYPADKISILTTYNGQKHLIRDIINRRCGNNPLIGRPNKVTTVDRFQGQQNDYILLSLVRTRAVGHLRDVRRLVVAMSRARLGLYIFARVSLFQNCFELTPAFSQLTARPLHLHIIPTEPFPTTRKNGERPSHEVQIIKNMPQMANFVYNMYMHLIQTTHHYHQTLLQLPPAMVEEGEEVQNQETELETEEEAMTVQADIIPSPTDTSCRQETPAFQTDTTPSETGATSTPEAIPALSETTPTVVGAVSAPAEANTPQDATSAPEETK

The other results are listed elsewhere or left out.
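Further: competitive profiling in live THP-1 cells: cysteine peptides tagged with an iodoacetamide desthiobiotin (IA-DTB) probe, intensity after compound treatment relative to DMSO-treated cells.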

Compound in one assay: Cc1cc(ccc1-c1ccccc1)C(=O)N1CCCN(CC1)C(=O)CCl [compound 10]
In words: probe-labelled cysteine peptide fold change vs DMSO (competition) (log2 fold change); higher = less target engagement (more negative = stronger competition). The note with it: 10 µM; THP-1; incubation time: 4 h.
As to “ARHGAP4_P98171_34_CLELQGELR (UniProt P98171)”, the “probe-labelled cysteine peptide fold change” value is -0.0772.

As for “ARIH2_O95376_233_DYVESHYQLQLCPGADCPMVIR (UniProt O95376)”, the “probe-labelled cysteine peptide fold change” value turned out to be 0.202.

“ARNT_P27540_400_NIVEFCHPEDQQLLR (UniProt P27540)”: the “probe-labelled cysteine peptide fold change” value is 0.142.

With “ARHGEF11_O15085_793_LFPNLPELIEIHNSWCEAMK (UniProt O15085)”, the “probe-labelled cysteine peptide fold change” value was found to be 0.178.

“ARID2_Q68CP9_82_SCSNAAFALK (UniProt Q68CP9)”: the “probe-labelled cysteine peptide fold change” value was -0.0891.

As to “ARHGEF18_Q6ZSZ5_494_LFPCADDLLETHSHFLAR (UniProt Q6ZSZ5)”, the “probe-labelled cysteine peptide fold change” value is -0.241.

With “ARRB1_P49407_125_KLGEHAYPFTFEIPPNLPCSVTLQPGPEDTGK (UniProt P49407)”, the “probe-labelled cysteine peptide fold change” value is -0.0331.

Take “ARHGAP30_Q7Z6I6_407_CAGVHISDPYNVNLPLHITSILSVPPNIISNVSLAR (UniProt Q7Z6I6)”: the “probe-labelled cysteine peptide fold change” value is -0.281.

Consider “ARHGEF2_Q92974_573_TCPSREDFPLIETEDEAYLRR (UniProt Q92974)”, for which the “probe-labelled cysteine peptide fold change” value is -0.0481.

Turning to “ARL2_P36404_153+157_SHHWCIQGCSAVTGENLLPGIDWLLDDISSR (UniProt P36404)”, the “probe-labelled cysteine peptide fold change” value amounted to 0.254.

Regarding “ARAF_P10398_538_ISSNCPK (UniProt P10398)”, the “probe-labelled cysteine peptide fold change” value was 0.0327.

“ARHGEF1_Q92888_815_ILSDLLPFCR (UniProt Q92888)”: the “probe-labelled cysteine peptide fold change” value was 0.0999.

On to “ARHGAP26_Q9UNA1_767_ALYACK (UniProt Q9UNA1)”, for which the “probe-labelled cysteine peptide fold change” value is -0.0407.

Turning to “ARHGAP26_Q9UNA1_11+12_GLPALEFSDCCLDSPHFR (UniProt Q9UNA1)”, the “probe-labelled cysteine peptide fold change” value is -0.174.

On to “ARHGEF10_O15013_808+809_AADCCR (UniProt O15013)”, for which the “probe-labelled cysteine peptide fold change” value is -0.24.

“ARF4_P18085_62_NICFTVWDVGGQDR (UniProt P18085)”: the “probe-labelled cysteine peptide fold change” value was 0.183.

As for “ARMC5_Q96C12_273_ACAEQLSLGGGLGPLVSLASHPK (UniProt Q96C12)”, the “probe-labelled cysteine peptide fold change” value was 0.113.

As for “ARPC2_O15144_120_NCFASVFEK (UniProt O15144)”, the “probe-labelled cysteine peptide fold change” value is -0.0375.

For “ARHGEF6_Q15052_738_QCLEEELK (UniProt Q15052)”, the “probe-labelled cysteine peptide fold change” value amounted to 0.0621.

As for “ARMH3_Q5T2E6_105_VVNALQTLCALIR (UniProt Q5T2E6)”, the “probe-labelled cysteine peptide fold change” value is -0.0975.

For the target “ARRB1_P49407_251_CPVAMEEADDTVAPSSTFCK (UniProt P49407)”, the “probe-labelled cysteine peptide fold change” value was 0.0122.

Regarding “ARHGAP30_Q7Z6I6_449_GLECPALQHRPSPASGPGPGPGLGPGPPDEK (UniProt Q7Z6I6)”, the “probe-labelled cysteine peptide fold change” value is -0.215.

In the case of “ARL2BP_Q9Y2Y0_149_GLDLSSGLVVTSLCK (UniProt Q9Y2Y0)”, the “probe-labelled cysteine peptide fold change” value was -0.0761.

“ARFGEF1_Q9Y6D6_1685_LLDCLLESHR (UniProt Q9Y6D6)”: the “probe-labelled cysteine peptide fold change” value was 0.0662.

With “ARHGEF1_Q92888_892_QLEELEEEFCR (UniProt Q92888)”, the “probe-labelled cysteine peptide fold change” value was -0.148.

In the case of “ARL14EP_Q8N8R7_57_TGMTLSGNNTICFHHVK (UniProt Q8N8R7)”, the “probe-labelled cysteine peptide fold change” value was found to be 0.111.

As for “ARHGAP45_Q92619_739+747_CLETLAIQCGHK (UniProt Q92619)”, the “probe-labelled cysteine peptide fold change” value was -0.116.

Take “ARID4A_P29374_211_DQCLVR (UniProt P29374)”: the “probe-labelled cysteine peptide fold change” value was -0.152.

Take “ARAP3_Q8WWN8_1199_VLEQALQWCQLPEPCSASLLLK (UniProt Q8WWN8)”: the “probe-labelled cysteine peptide fold change” value is -0.148.

For “ARFGEF1_Q9Y6D6_1050_CISQLELAQLIGTGVKPR (UniProt Q9Y6D6)”, the “probe-labelled cysteine peptide fold change” value was determined as 0.0713.

Take “AQR_O60306_1039_IIAMTCTHAALK (UniProt O60306)”: the “probe-labelled cysteine peptide fold change” value was found to be 0.0755.

With “ARHGAP30_Q7Z6I6_640_GSGSLEGEAAGCGR (UniProt Q7Z6I6)”, the “probe-labelled cysteine peptide fold change” value was -0.453.

Consider “ARHGAP9_Q9BRR9_542_DQVFGCQLESLCQR (UniProt Q9BRR9)”, for which the “probe-labelled cysteine peptide fold change” value was -0.108.

As to “ARHGEF6_Q15052_763_QTDECIR (UniProt Q15052)”, the “probe-labelled cysteine peptide fold change” value was -0.0781.

As for “ARID2_Q68CP9_1814_CLYELNFTVQSK (UniProt Q68CP9)”, the “probe-labelled cysteine peptide fold change” value was 0.171.

As to “ARHGEF18_Q6ZSZ5_315_ECVNGHQLLQGTFSGPSSCPLCGKPFLSSASLK (UniProt Q6ZSZ5)”, the “probe-labelled cysteine peptide fold change” value is -0.203.

Consider “ARHGAP17_Q68EM7_53_RLVACFQGQHGTDAER (UniProt Q68EM7)”, for which the “probe-labelled cysteine peptide fold change” value was 0.0556.

Take “ARHGAP4_P98171_330_VLEVHATVFCPPLR (UniProt P98171)”: the “probe-labelled cysteine peptide fold change” value is 0.14.

For “ARID1A_O14497_1827_NDPFVVDCSDK (UniProt O14497)”, the “probe-labelled cysteine peptide fold change” value was -0.265.

For the target “ARHGEF2_Q92974_86_DTLANCTK (UniProt Q92974)”, the “probe-labelled cysteine peptide fold change” value is -0.192.

Still in this assay, the particulars now being: 50 µM; THP-1; incubation time: 4 h.
With “ARHGAP4_P98171_34_CLELQGELR (UniProt P98171)”, the “probe-labelled cysteine peptide fold change” value came out at 0.221.

Turning to “ARIH2_O95376_233_DYVESHYQLQLCPGADCPMVIR (UniProt O95376)”, the “probe-labelled cysteine peptide fold change” value was found to be 0.24.

Turning to “ARNT_P27540_400_NIVEFCHPEDQQLLR (UniProt P27540)”, the “probe-labelled cysteine peptide fold change” value is -0.0294.

For “ARHGEF11_O15085_793_LFPNLPELIEIHNSWCEAMK (UniProt O15085)”, the “probe-labelled cysteine peptide fold change” value is 0.0986.

For “ARID2_Q68CP9_82_SCSNAAFALK (UniProt Q68CP9)”, the “probe-labelled cysteine peptide fold change” value was -0.0578.

Consider “ARHGEF18_Q6ZSZ5_494_LFPCADDLLETHSHFLAR (UniProt Q6ZSZ5)”, for which the “probe-labelled cysteine peptide fold change” value is -0.113.

Turning to “ARRB1_P49407_125_KLGEHAYPFTFEIPPNLPCSVTLQPGPEDTGK (UniProt P49407)”, the “probe-labelled cysteine peptide fold change” value stood at 0.0334.

For “ARHGAP30_Q7Z6I6_407_CAGVHISDPYNVNLPLHITSILSVPPNIISNVSLAR (UniProt Q7Z6I6)”, the “probe-labelled cysteine peptide fold change” value was found to be 0.237.

As to “ARHGEF2_Q92974_573_TCPSREDFPLIETEDEAYLRR (UniProt Q92974)”, the “probe-labelled cysteine peptide fold change” value was 0.0748.

Consider “ARL2_P36404_153+157_SHHWCIQGCSAVTGENLLPGIDWLLDDISSR (UniProt P36404)”, for which the “probe-labelled cysteine peptide fold change” value is -0.408.

On to “ARAF_P10398_538_ISSNCPK (UniProt P10398)”, for which the “probe-labelled cysteine peptide fold change” value was -0.312.

For “ARHGEF1_Q92888_815_ILSDLLPFCR (UniProt Q92888)”, the “probe-labelled cysteine peptide fold change” value was -0.0607.

Regarding “ARHGAP26_Q9UNA1_767_ALYACK (UniProt Q9UNA1)”, the “probe-labelled cysteine peptide fold change” value is -0.00284.

Take “ARHGAP26_Q9UNA1_11+12_GLPALEFSDCCLDSPHFR (UniProt Q9UNA1)”: the “probe-labelled cysteine peptide fold change” value is 0.0714.

On to “ARHGEF10_O15013_808+809_AADCCR (UniProt O15013)”, for which the “probe-labelled cysteine peptide fold change” value was -0.976.

“ARF4_P18085_62_NICFTVWDVGGQDR (UniProt P18085)”: the “probe-labelled cysteine peptide fold change” value amounted to 0.358.

“ARMC5_Q96C12_273_ACAEQLSLGGGLGPLVSLASHPK (UniProt Q96C12)”: the “probe-labelled cysteine peptide fold change” value is -0.586.

For “ARPC2_O15144_120_NCFASVFEK (UniProt O15144)”, the “probe-labelled cysteine peptide fold change” value is 0.00267.

On to “ARHGEF6_Q15052_738_QCLEEELK (UniProt Q15052)”, for which the “probe-labelled cysteine peptide fold change” value is -0.356.

As for “ARMH3_Q5T2E6_105_VVNALQTLCALIR (UniProt Q5T2E6)”, the “probe-labelled cysteine peptide fold change” value worked out at 0.888.

For the target “ARRB1_P49407_251_CPVAMEEADDTVAPSSTFCK (UniProt P49407)”, the “probe-labelled cysteine peptide fold change” value came to 0.108.

“ARHGAP30_Q7Z6I6_449_GLECPALQHRPSPASGPGPGPGLGPGPPDEK (UniProt Q7Z6I6)”: the “probe-labelled cysteine peptide fold change” value is -0.563.

With “ARL2BP_Q9Y2Y0_149_GLDLSSGLVVTSLCK (UniProt Q9Y2Y0)”, the “probe-labelled cysteine peptide fold change” value is -0.0301.

For the target “ARFGEF1_Q9Y6D6_1685_LLDCLLESHR (UniProt Q9Y6D6)”, the “probe-labelled cysteine peptide fold change” value was found to be 0.00546.

In the case of “ARHGEF1_Q92888_892_QLEELEEEFCR (UniProt Q92888)”, the “probe-labelled cysteine peptide fold change” value is 0.153.

Turning to “ARL14EP_Q8N8R7_57_TGMTLSGNNTICFHHVK (UniProt Q8N8R7)”, the “probe-labelled cysteine peptide fold change” value is -0.0548.

On to “ARHGAP45_Q92619_739+747_CLETLAIQCGHK (UniProt Q92619)”, for which the “probe-labelled cysteine peptide fold change” value was -0.333.

“ARID4A_P29374_211_DQCLVR (UniProt P29374)”: the “probe-labelled cysteine peptide fold change” value is -0.0451.

Take “ARAP3_Q8WWN8_1199_VLEQALQWCQLPEPCSASLLLK (UniProt Q8WWN8)”: the “probe-labelled cysteine peptide fold change” value was -0.683.

As for “ARFGEF1_Q9Y6D6_1050_CISQLELAQLIGTGVKPR (UniProt Q9Y6D6)”, the “probe-labelled cysteine peptide fold change” value was -0.125.

Turning to “AQR_O60306_1039_IIAMTCTHAALK (UniProt O60306)”, the “probe-labelled cysteine peptide fold change” value is 0.282.

On to “ARHGAP30_Q7Z6I6_640_GSGSLEGEAAGCGR (UniProt Q7Z6I6)”, for which the “probe-labelled cysteine peptide fold change” value is -0.109.

As for “ARHGAP9_Q9BRR9_542_DQVFGCQLESLCQR (UniProt Q9BRR9)”, the “probe-labelled cysteine peptide fold change” value was determined as 0.0653.

Take “ARHGEF6_Q15052_763_QTDECIR (UniProt Q15052)”: the “probe-labelled cysteine peptide fold change” value is -0.172.

Take “ARID2_Q68CP9_1814_CLYELNFTVQSK (UniProt Q68CP9)”: the “probe-labelled cysteine peptide fold change” value came to 0.0348.

Regarding “ARHGEF18_Q6ZSZ5_315_ECVNGHQLLQGTFSGPSSCPLCGKPFLSSASLK (UniProt Q6ZSZ5)”, the “probe-labelled cysteine peptide fold change” value is -0.62.

As for “ARHGAP17_Q68EM7_53_RLVACFQGQHGTDAER (UniProt Q68EM7)”, the “probe-labelled cysteine peptide fold change” value is -0.0362.

Consider “ARHGAP4_P98171_330_VLEVHATVFCPPLR (UniProt P98171)”, for which the “probe-labelled cysteine peptide fold change” value stood at 0.139.

Regarding “ARID1A_O14497_1827_NDPFVVDCSDK (UniProt O14497)”, the “probe-labelled cysteine peptide fold change” value worked out at 0.0739.

Regarding “ARHGEF2_Q92974_86_DTLANCTK (UniProt Q92974)”, the “probe-labelled cysteine peptide fold change” value is -0.167.
